Assays:
[1] = test system: E. faecalis ATCC 29213; experiment: MBC, plating of wells without growth; type: cell-based, Enterococcus faecalis; conditions: ratio in parentheses
Description: (§1) After incubation at 35°C for 24 hr, the colonies were counted and the percentage of inhibition was calculated. MBC is defined as the lowest compound's concentration that inhibits at least 99.9% of the bacterial cell count compared to nontreated viability control (Clinical and Laboratory Standards Institute, 1999).

[2] = test system: BSC‐40 cells; experiment: Cytotoxicity, MTT reduction assay; type: cell-based; conditions: CC50 divided by MIC
Description: (§2) The cytotoxicity of active compounds to mammalian cells was assessed using the MTT reduction assay (Mosmann, 1983). Vero and BSC‐40 cells were seeded in 96‐well plates (8 × 10^4 cells per well) and incubated at 37°C and 5% CO2 atmosphere. After 24 hr of incubation, 200 μL of fresh medium containing a serial dilution of compounds (10–1.25 μg/ml) were added to the plates. After 48 hr of incubation in the same conditions, 100 μL of MTT solution in MEM or DMEM (5 mg/ml) was added to each well and incubated for 3 hr at 37°C and 5% CO2 atmosphere. The medium was removed and 100 μL of DMSO was used to solubilize formazan crystals. Absorbance at 570 nm of each well was read using a spectrophotometer (VersaMax, Molecular Devices).

[3] = test system: Vero cells; experiment: Cytotoxicity, MTT reduction assay; type: cell-based; conditions: CC50 divided by MIC
Description: as §2

[4] = test system: S. aureus ATCC 29212; experiment: MBC, plating of wells without growth; type: cell-based, Staphylococcus aureus; conditions: ratio in parentheses
Description: as §1

NC(COc1cccc2ccccc12)COc1cccc2ccccc12 [CPD20]
MBC/MIC E. faecalis ATCC 29213 [1]: 2.0
SI Staphylococcus aureus [2]: 1.0
SI Streptococcus pyogenes [2]: 1.0
SI Enterococcus faecalis [3]: 0.76
SI MRSA ATCC 43300 [3]: 1.52
SI Staphylococcus aureus [3]: 1.52
SI Streptococcus pyogenes [3]: 1.52
SI Strain 5749 ([3]; MRSA): 1.52
SI Strain 5912 ([3]; MRSA): 1.52
SI Strain 6100 ([3]; MRSA): 1.52
SI Strain 6154 ([3]; MRSA): 1.52
SI Strain 6613 ([3]; MRSA): 1.52
MBC/MIC S. aureus ATCC 29212 [4]: 4.0

From PMC6855212, “Antibacterial activity of synthetic 1,3‐bis(aryloxy)propan‐2‐amines against Gram‐positive bacteria” (MicrobiologyOpen, 2019)
